Reference: the supplement of paper PMC10849652
The list shows a part of the results.

By UniProt entry, the sequences of proteins in these tests, tags left out. Where a name states a change or a piece, a line headed by the entry shows the natural chain unless it says otherwise.
UniProt Q8N465: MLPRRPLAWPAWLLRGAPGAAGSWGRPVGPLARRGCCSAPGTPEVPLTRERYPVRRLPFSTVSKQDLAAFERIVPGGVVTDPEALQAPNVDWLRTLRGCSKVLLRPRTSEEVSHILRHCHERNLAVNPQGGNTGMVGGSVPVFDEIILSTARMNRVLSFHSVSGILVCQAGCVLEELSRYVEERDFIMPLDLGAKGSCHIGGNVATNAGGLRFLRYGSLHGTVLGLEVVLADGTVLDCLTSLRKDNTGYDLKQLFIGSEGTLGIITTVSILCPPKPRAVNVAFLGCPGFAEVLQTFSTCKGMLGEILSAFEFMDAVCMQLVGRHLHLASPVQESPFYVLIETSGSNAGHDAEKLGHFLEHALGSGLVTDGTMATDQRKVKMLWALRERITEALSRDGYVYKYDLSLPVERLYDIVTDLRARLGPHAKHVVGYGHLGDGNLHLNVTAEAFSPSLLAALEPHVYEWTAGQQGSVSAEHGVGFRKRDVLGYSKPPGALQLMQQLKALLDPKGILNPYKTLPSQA
UniProt Q58WW2: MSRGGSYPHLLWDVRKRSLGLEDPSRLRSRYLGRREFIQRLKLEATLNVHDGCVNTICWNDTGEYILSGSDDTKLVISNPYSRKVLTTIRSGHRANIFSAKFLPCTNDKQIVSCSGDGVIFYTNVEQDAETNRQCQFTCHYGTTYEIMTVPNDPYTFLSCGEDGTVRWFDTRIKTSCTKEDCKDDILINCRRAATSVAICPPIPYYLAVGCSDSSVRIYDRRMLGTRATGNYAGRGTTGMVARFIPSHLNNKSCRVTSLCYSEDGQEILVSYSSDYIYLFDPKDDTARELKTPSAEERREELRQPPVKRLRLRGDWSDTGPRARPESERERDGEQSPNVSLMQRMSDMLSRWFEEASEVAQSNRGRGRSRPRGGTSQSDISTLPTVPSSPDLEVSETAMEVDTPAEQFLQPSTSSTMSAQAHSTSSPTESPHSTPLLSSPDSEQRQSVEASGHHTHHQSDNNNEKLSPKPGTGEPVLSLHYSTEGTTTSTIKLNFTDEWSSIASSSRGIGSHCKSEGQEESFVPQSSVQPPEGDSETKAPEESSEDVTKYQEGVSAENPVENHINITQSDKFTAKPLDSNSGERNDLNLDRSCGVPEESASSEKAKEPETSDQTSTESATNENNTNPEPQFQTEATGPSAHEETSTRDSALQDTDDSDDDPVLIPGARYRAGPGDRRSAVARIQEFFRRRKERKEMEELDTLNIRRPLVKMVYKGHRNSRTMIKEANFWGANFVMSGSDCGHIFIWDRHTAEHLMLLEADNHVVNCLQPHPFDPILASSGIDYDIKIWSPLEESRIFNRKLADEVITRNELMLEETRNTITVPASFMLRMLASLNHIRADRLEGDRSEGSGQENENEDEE
UniProt Q96GQ7: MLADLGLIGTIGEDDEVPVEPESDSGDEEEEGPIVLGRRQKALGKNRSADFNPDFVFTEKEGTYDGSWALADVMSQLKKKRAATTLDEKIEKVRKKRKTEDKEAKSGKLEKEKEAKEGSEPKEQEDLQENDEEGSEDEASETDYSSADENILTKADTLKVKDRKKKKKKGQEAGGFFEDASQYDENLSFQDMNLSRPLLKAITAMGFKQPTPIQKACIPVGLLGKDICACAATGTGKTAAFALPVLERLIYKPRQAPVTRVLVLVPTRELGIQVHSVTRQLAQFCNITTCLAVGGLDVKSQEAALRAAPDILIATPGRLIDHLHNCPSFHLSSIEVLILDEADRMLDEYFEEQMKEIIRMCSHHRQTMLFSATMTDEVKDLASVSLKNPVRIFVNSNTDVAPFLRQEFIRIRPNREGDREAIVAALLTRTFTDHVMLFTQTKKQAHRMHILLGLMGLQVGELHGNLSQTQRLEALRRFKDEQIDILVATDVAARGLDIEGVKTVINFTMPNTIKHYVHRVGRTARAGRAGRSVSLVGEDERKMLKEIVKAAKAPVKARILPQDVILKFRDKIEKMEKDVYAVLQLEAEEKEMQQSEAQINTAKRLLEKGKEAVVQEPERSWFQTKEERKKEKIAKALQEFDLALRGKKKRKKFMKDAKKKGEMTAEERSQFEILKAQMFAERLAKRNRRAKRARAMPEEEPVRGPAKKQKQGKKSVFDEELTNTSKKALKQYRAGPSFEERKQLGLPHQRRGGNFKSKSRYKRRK
UniProt Q7L014: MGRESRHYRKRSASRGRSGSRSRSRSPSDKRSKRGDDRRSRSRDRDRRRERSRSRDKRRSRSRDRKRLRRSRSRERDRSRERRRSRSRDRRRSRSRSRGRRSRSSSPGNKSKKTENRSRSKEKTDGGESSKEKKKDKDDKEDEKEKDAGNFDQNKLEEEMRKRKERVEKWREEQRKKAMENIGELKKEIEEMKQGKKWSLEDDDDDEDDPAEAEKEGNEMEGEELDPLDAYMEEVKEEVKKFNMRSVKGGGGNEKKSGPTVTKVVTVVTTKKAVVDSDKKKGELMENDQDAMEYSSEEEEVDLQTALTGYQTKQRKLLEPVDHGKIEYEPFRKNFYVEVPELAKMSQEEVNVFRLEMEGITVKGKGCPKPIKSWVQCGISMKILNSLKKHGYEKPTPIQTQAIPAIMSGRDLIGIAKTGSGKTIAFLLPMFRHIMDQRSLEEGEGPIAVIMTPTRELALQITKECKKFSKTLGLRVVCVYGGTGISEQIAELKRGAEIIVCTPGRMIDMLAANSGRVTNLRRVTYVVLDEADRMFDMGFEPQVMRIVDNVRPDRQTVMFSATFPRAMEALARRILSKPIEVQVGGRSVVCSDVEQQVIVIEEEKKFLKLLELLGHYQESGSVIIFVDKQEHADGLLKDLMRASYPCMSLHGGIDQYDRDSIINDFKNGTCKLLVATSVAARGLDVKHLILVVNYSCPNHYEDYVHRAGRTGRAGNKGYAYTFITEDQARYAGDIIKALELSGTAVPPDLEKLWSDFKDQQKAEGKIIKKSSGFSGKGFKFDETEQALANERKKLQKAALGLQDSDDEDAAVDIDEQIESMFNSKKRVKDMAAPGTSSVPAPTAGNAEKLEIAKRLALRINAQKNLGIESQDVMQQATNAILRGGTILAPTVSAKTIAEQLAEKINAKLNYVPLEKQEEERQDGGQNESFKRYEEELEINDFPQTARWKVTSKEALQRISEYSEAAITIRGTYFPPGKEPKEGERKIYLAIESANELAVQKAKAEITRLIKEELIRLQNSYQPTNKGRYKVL
UniProt O00399, whole entry, looked up: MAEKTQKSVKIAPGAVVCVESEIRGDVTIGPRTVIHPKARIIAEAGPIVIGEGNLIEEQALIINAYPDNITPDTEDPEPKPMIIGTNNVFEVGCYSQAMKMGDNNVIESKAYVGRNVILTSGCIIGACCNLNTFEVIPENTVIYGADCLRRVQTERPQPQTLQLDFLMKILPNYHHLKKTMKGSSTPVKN
UniProt O94830: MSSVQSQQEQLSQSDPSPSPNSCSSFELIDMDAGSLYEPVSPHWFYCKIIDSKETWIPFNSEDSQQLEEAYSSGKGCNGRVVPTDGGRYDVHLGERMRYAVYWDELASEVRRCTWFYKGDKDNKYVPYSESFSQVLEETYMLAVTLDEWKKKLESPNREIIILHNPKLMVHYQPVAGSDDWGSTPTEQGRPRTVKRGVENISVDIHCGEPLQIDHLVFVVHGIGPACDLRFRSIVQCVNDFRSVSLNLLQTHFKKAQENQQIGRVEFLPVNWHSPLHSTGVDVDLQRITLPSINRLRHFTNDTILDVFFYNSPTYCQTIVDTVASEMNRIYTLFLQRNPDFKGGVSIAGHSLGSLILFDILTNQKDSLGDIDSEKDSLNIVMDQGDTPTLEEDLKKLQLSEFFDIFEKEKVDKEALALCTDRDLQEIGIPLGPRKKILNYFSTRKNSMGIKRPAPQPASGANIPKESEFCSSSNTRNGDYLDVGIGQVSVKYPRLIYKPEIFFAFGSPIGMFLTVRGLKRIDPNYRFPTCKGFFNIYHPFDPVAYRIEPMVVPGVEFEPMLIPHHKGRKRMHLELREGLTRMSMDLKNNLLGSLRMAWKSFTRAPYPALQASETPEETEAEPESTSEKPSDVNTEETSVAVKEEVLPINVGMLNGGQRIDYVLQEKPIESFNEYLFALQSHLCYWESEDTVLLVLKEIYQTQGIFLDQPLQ
UniProt Q9UJV9: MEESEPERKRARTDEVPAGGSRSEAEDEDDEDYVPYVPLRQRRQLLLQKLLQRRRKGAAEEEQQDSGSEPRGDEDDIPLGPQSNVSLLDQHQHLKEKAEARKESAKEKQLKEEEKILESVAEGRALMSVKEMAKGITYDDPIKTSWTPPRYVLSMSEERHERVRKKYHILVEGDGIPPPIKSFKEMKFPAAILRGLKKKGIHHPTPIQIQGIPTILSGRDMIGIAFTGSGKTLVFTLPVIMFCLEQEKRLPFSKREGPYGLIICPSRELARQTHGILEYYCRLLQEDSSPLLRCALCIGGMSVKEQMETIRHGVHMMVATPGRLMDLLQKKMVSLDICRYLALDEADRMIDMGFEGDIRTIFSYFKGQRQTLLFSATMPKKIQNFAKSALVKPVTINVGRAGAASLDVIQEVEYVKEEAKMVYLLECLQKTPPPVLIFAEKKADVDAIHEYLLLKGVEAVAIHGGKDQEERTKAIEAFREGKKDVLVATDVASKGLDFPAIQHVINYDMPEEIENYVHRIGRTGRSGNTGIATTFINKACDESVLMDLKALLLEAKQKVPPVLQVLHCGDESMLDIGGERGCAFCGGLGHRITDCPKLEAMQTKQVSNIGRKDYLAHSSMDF
UniProt Q9NV06: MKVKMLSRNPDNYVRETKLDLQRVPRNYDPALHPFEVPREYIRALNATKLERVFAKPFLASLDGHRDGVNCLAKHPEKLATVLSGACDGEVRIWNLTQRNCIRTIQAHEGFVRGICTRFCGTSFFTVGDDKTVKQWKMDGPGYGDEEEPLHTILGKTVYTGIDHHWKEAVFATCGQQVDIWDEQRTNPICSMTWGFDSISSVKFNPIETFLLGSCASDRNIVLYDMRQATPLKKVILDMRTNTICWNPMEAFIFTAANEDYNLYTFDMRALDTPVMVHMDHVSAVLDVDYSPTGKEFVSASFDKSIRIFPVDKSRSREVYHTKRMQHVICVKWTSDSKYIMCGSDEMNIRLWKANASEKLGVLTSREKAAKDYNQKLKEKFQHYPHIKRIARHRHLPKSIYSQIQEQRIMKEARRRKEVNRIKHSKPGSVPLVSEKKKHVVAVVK
UniProt P07108: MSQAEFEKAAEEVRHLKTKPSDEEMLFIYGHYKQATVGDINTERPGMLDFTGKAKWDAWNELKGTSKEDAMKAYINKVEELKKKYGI
UniProt Q8NHQ9: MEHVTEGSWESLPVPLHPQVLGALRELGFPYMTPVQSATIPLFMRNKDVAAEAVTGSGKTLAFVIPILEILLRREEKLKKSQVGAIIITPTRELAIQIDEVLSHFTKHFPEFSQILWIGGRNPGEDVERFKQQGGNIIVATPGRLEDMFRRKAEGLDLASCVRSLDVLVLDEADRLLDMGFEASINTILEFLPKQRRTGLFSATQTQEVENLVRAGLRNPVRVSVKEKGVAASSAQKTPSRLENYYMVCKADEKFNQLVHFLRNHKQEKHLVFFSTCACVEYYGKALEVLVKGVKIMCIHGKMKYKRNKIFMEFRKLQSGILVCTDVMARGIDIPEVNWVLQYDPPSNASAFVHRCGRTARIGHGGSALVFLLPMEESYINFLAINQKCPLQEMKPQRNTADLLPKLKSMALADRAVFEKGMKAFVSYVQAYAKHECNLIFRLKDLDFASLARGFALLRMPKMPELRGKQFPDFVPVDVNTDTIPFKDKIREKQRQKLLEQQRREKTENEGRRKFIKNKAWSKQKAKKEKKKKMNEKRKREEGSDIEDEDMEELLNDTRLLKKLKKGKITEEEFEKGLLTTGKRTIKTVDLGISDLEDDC
UniProt Q13561, whole entry, looked up: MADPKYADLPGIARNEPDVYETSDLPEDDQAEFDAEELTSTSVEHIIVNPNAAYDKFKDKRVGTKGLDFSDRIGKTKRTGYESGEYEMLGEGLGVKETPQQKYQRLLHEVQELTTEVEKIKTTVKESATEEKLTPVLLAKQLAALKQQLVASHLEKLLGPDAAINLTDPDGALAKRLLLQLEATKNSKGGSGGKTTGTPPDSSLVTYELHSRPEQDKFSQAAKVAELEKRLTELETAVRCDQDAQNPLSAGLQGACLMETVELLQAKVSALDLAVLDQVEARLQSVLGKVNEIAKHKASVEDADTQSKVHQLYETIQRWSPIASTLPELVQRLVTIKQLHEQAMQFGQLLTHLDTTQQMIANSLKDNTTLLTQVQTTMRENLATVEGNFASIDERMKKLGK

Columns and labels:
Test in all cases: log2 fold change, soluble protein after heating vs DMSO (PISA); higher = thermal stabilisation; K562 lysate, 10 uM; active = over 0.2 and 3.5 SD of the protein, either way, in both replicates (recomputed)
vemurafenib = compound: CCCS(=O)(=O)Nc1ccc(F)c(C(=O)c2c[nH]c3ncc(-c4ccc(Cl)cc4)cc23)c1F [vemurafenib]
How it was run: (§1)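 To prepare the extract, K562 pellets were dounce-homogenised in PBS pH 7.4 with 1 mM MgCl2, giving crude material at 1 mg/mL protein. This was treated with 10 μM compound for 30 min, then heated in aliquots for 3 min over 48°C-58°C before pooling and addition of NP-40 to 0.5% at 4°C. Centrifugation at 21,000xg for 90 min left soluble protein in the supernatant, which TMTpro 16plex LC-MS/MS quantified with equalised channel sums. Results are log-two fold changes in thermal stability compared with solvent controls, from duplicates.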

[1] = compound: CCCS(=O)(=O)Nc1ccc(F)c(C(=O)c2c[nH]c3ncc(Cl)cc23)c1F
How it was run: as §1

barasertib = compound: CCN(CCCOc1ccc2c(Nc3cc(CC(=O)Nc4cccc(F)c4)[nH]n3)ncnc2c1)CCOP(=O)(O)O [barasertib]
How it was run: as §1

[2] = compound: CC[C@@H]1C(=O)N(C)c2cnc(Nc3ccc(C(=O)NC4CCN(C)CC4)cc3OC)nc2N1C1CCCC1
How it was run: as §1

volasertib = compound: CC[C@@H]1C(=O)N(C)c2cnc(Nc3ccc(C(=O)N[C@H]4CC[C@H](N5CCN(CC6CC6)CC5)CC4)cc3OC)nc2N1C(C)C [volasertib]
How it was run: as §1

[3] = compound: CCn1c(C(=O)N(C2CC2)C2CC2)cc2c3c(ncn3C)c(Nc3cc(C)n(C)n3)nc21
How it was run: as §1

[4] = compound: CCn1cc(-c2ccnc3[nH]c(-c4cccc(CN(C)C)c4)cc23)c(-c2ccc(NC(=O)N(C)C)cc2)n1
How it was run: as §1

[5] = compound: CN1CCC(CNc2ccc3ncc(-c4cccc(OC(F)(F)F)c4)n3n2)CC1
How it was run: as §1

saracatinib = compound: CN1CCN(CCOc2cc(OC3CCOCC3)c3c(Nc4c(Cl)ccc5c4OCO5)ncnc3c2)CC1 [saracatinib]
How it was run: as §1

sotrastaurin = compound: CN1CCN(c2nc(C3=C(c4c[nH]c5ccccc45)C(=O)NC3=O)c3ccccc3n2)CC1 [sotrastaurin]
How it was run: as §1

alvocidib = compound: CN1CC[C@H](c2c(O)cc(O)c3c(=O)cc(-c4ccccc4Cl)oc23)[C@H](O)C1 [alvocidib]
How it was run: as §1

Tubastatin A = compound: CN1CCc2c(c3ccccc3n2Cc2ccc(C(=O)NO)cc2)C1 [Tubastatin A]
How it was run: as §1

[6] = compound: CNC(=O)C1=CC=CC=C1NC2=NC(=NC=C2Cl)NC3=C(C=C(C=C3)N4CCOCC4)OC
How it was run: as §1

defactinib = compound: CNC(=O)c1ccc(Nc2ncc(C(F)(F)F)c(NCc3nccnc3N(C)S(C)(=O)=O)n2)cc1 [defactinib]
How it was run: as §1

[7] = compound: CNc1nc(-c2ccc3c(N)n[nH]c3c2)cc(N2C[C@@H](C(=O)NC3CCCCC3)CC[C@H]2C)n1
How it was run: as §1

encorafenib = compound: COC(=O)N[C@@H](C)CNc1nccc(-c2cn(C(C)C)nc2-c2cc(Cl)cc(NS(C)(=O)=O)c2F)n1 [encorafenib]
How it was run: as §1

[8] = compound: COC(=O)[C@H](CCSC)NC(=O)C1=C(C=C(C=C1)NC[C@H](CS)N)C2=CC=CC=C2
How it was run: as §1

alisertib = compound: COc1cc(Nc2ncc3c(n2)-c2ccc(Cl)cc2C(c2c(F)cccc2OC)=NC3)ccc1C(=O)O [alisertib]
How it was run: as §1

[9] = compound: COc1cc2nc(-c3cc(F)ccc3O)nc(N[C@@H]3CNC[C@H]3C(C)(C)O)c2cc1OC
How it was run: as §1

gefitinib = compound: COc1cc2ncnc(Nc3ccc(F)c(Cl)c3)c2cc1OCCCN1CCOCC1 [gefitinib]
How it was run: as §1

Measured: log2 fold change

D2HGDH (UniProt Q8N465)
inactive: vemurafenib 0.05 | [1] 0.012 | barasertib -0.052 | [2] 0.07 | volasertib -0.01 | [3] -0.079 | [4] -0.068 | [5] 0.081 | saracatinib 0.006 | sotrastaurin 0.007 | alvocidib -0.033 | Tubastatin A 0.085 | [6] 0.017 | defactinib 0.004 | [7] 0.017 | encorafenib -0.012 | [8] 0.051 | alisertib 0 | [9] -0.026 | gefitinib -0.013

DCAF6 isoform 3 (UniProt Q58WW2)
inactive: vemurafenib -0.049 | [1] 0.017 | barasertib 0.041 | [2] 0.01 | volasertib -0.011 | [3] -0.005 | [4] 0.095 | [5] -0.01 | saracatinib -0.012 | sotrastaurin 0 | alvocidib -0.028 | Tubastatin A 0.015 | [6] -0.008 | defactinib 0.009 | [7] 0.051 | encorafenib 0.04 | [8] -0.021 | alisertib 0.016 | [9] -0.008 | gefitinib -0.032

DDX27 (UniProt Q96GQ7)
inactive: vemurafenib 0.019 | [1] 0.05 | barasertib 0.018 | [2] -0.017 | volasertib -0.003 | [3] -0.025 | [4] 0.036 | [5] -0.014 | saracatinib 0.038 | sotrastaurin -0.009 | alvocidib -0.016 | Tubastatin A -0.005 | [6] -0.009 | defactinib 0.01 | [7] 0.013 | encorafenib 0.018 | [8] 0.011 | alisertib -0.014 | [9] -0.005 | gefitinib 0.021

DDX46 (UniProt Q7L014)
inactive: vemurafenib 0.018 | [1] 0.019 | barasertib 0.027 | [2] -0.019 | volasertib -0.044 | [3] 0.011 | [4] -0.023 | [5] 0.027 | saracatinib -0.02 | sotrastaurin 0.012 | alvocidib -0.036 | Tubastatin A -0.043 | [6] 0.007 | defactinib 0.012 | [7] -0.006 | encorafenib 0.009 | [8] 0.085 | alisertib 0.019 | [9] -0.013 | gefitinib -0.01

DDA1 (UniProt Q9BW61)
inactive: vemurafenib -0.02 | [1] 0.038 | barasertib -0.004 | [2] 0.003 | volasertib 0 | [3] 0.046 | [4] 0 | [5] -0.023 | saracatinib 0.019 | sotrastaurin -0.025 | alvocidib 0.024 | Tubastatin A -0.002 | [6] 0.015 | defactinib -0.004 | [7] 0.031 | encorafenib 0.013 | [8] 0.021 | alisertib -0.024 | [9] -0.003 | gefitinib -0.034

DBN1 (UniProt Q16643)
inactive: vemurafenib 0.001 | [1] 0.001 | barasertib -0.021 | [2] 0.011 | volasertib 0.017 | [3] -0.009 | [4] 0.007 | [5] 0.011 | saracatinib -0.015 | sotrastaurin 0.006 | alvocidib 0.018 | Tubastatin A -0.014 | [6] 0.025 | defactinib 0.016 | [7] 0.054 | encorafenib -0.019 | [8] -0.041 | alisertib -0.015 | [9] 0.007 | gefitinib 0.018

Four consecutive entries out of the list so far, for reference:
DDX27 (UniProt Q96GQ7)
inactive: vemurafenib 0.019 | [1] 0.05 | barasertib 0.018 | [2] -0.017 | volasertib -0.003 | [3] -0.025 | [4] 0.036 | [5] -0.014 | saracatinib 0.038 | sotrastaurin -0.009 | alvocidib -0.016 | Tubastatin A -0.005 | [6] -0.009 | defactinib 0.01 | [7] 0.013 | encorafenib 0.018 | [8] 0.011 | alisertib -0.014 | [9] -0.005 | gefitinib 0.021

DDX46 (UniProt Q7L014)
inactive: vemurafenib 0.018 | [1] 0.019 | barasertib 0.027 | [2] -0.019 | volasertib -0.044 | [3] 0.011 | [4] -0.023 | [5] 0.027 | saracatinib -0.02 | sotrastaurin 0.012 | alvocidib -0.036 | Tubastatin A -0.043 | [6] 0.007 | defactinib 0.012 | [7] -0.006 | encorafenib 0.009 | [8] 0.085 | alisertib 0.019 | [9] -0.013 | gefitinib -0.01

DDA1 (UniProt Q9BW61)
inactive: vemurafenib -0.02 | [1] 0.038 | barasertib -0.004 | [2] 0.003 | volasertib 0 | [3] 0.046 | [4] 0 | [5] -0.023 | saracatinib 0.019 | sotrastaurin -0.025 | alvocidib 0.024 | Tubastatin A -0.002 | [6] 0.015 | defactinib -0.004 | [7] 0.031 | encorafenib 0.013 | [8] 0.021 | alisertib -0.024 | [9] -0.003 | gefitinib -0.034

DBN1 (UniProt Q16643)
inactive: vemurafenib 0.001 | [1] 0.001 | barasertib -0.021 | [2] 0.011 | volasertib 0.017 | [3] -0.009 | [4] 0.007 | [5] 0.011 | saracatinib -0.015 | sotrastaurin 0.006 | alvocidib 0.018 | Tubastatin A -0.014 | [6] 0.025 | defactinib 0.016 | [7] 0.054 | encorafenib -0.019 | [8] -0.041 | alisertib -0.015 | [9] 0.007 | gefitinib 0.018

Remaining list, next part

DCTN6 (UniProt O00399)
inactive: vemurafenib -0.041 | [1] 0.01 | barasertib 0.026 | [2] 0.002 | volasertib 0.028 | [3] -0.022 | [4] 0.025 | [5] 0.003 | saracatinib 0.007 | sotrastaurin -0.037 | alvocidib 0.002 | Tubastatin A 0.009 | [6] 0.025 | defactinib 0.019 | [7] 0.006 | encorafenib 0.002 | [8] -0.073 | alisertib -0.095 | [9] -0.052 | gefitinib -0.018

DDHD2 (UniProt O94830)
inactive: vemurafenib 0.042 | [1] 0.012 | barasertib 0.009 | [2] 0.023 | volasertib -0.009 | [3] 0.009 | [4] -0.056 | [5] 0 | saracatinib 0.04 | sotrastaurin -0.003 | alvocidib 0.038 | Tubastatin A -0.013 | [6] 0.04 | defactinib 0.032 | [7] 0.011 | encorafenib 0.048 | [8] -0.155 | alisertib 0.002 | [9] 0.018 | gefitinib -0.014

DBT (UniProt P11182)
inactive: vemurafenib -0.042 | [1] 0.018 | barasertib 0.014 | [2] -0.035 | volasertib -0.013 | [3] -0.009 | [4] -0.066 | [5] 0.043 | saracatinib -0.013 | sotrastaurin 0.008 | alvocidib 0.015 | Tubastatin A 0.026 | [6] 0.029 | defactinib 0.005 | [7] -0.049 | encorafenib 0.03 | [8] -0.064 | alisertib -0.015 | [9] -0.012 | gefitinib -0.008

DDX41 (UniProt Q9UJV9)
inactive: vemurafenib 0.047 | [1] -0.008 | barasertib 0.046 | [2] 0.016 | volasertib -0.039 | [3] 0.047 | [4] -0.071 | [5] 0.042 | saracatinib -0.016 | sotrastaurin 0.012 | alvocidib -0.016 | Tubastatin A -0.136 | [6] 0.014 | defactinib -0.015 | [7] 0.057 | encorafenib -0.013 | [8] 0.046 | alisertib -0.003 | [9] -0.002 | gefitinib 0.001

DBR1 (UniProt Q9UK59)
inactive: vemurafenib 0.083 | [1] 0.032 | barasertib -0.023 | [2] -0.003 | volasertib -0.009 | [3] -0.025 | [4] -0.164 | [5] 0.089 | saracatinib 0 | sotrastaurin -0.019 | alvocidib -0.071 | Tubastatin A 0.021 | [6] 0.002 | defactinib -0.001 | [7] 0.055 | encorafenib 0.046 | [8] 0.008 | alisertib -0.02 | [9] 0.001 | gefitinib 0.026

DCAF13 (UniProt Q9NV06)
inactive: vemurafenib 0.006 | [1] 0.054 | barasertib 0.063 | [2] 0.066 | volasertib -0.027 | [3] -0.032 | [4] 0.074 | [5] 0.004 | saracatinib 0.003 | sotrastaurin 0.043 | alvocidib -0.029 | Tubastatin A 0.049 | [6] 0.037 | defactinib 0.068 | [7] 0.01 | encorafenib 0.058 | [8] 0.064 | alisertib 0.025 | [9] -0.022 | gefitinib 0.012

CYP51A1 (UniProt Q16850)
inactive: vemurafenib -0.014 | [1] -0.007 | barasertib -0.011 | [2] 0.053 | volasertib 0.01 | [3] -0.02 | [4] -0.103 | [5] -0.066 | saracatinib -0.043 | sotrastaurin 0.001 | alvocidib -0.017 | Tubastatin A 0.007 | [6] 0.005 | defactinib -0.001 | [7] 0.023 | encorafenib -0.019 | [8] 0.09 | alisertib 0.019 | [9] 0.053 | gefitinib 0

DBI isoform 5 (UniProt P07108)
inactive: vemurafenib -0.038 | [1] -0.015 | barasertib 0.057 | [2] 0.06 | volasertib 0.113 | [3] -0.02 | [4] -0.001 | [5] -0.162 | saracatinib 0.048 | sotrastaurin -0.018 | alvocidib 0.184 | Tubastatin A 0.117 | [6] 0.017 | defactinib 0.12 | [7] -0.055 | encorafenib 0.015 | [8] -0.076 | alisertib 0.086 | [9] 0.005 | gefitinib -0.031

DDX55 (UniProt Q8NHQ9)
inactive: vemurafenib 0.01 | [1] 0.015 | barasertib 0.014 | [2] -0.042 | volasertib -0.015 | [3] 0.035 | [4] 0.009 | [5] 0.021 | saracatinib -0.004 | sotrastaurin 0.051 | alvocidib -0.079 | Tubastatin A 0.012 | [6] 0.021 | defactinib 0.028 | [7] -0.013 | encorafenib 0.036 | [8] 0.057 | alisertib -0.012 | [9] -0.014 | gefitinib -0.003

DCTN2 (UniProt Q13561)
inactive: vemurafenib 0.335 | [1] -0.015 | barasertib 0.042 | [2] 0.14 | volasertib 0.13 | [3] -0.028 | [4] -0.037 | [5] 0.033 | saracatinib 0.155 | sotrastaurin -0.152 | alvocidib -0.019 | Tubastatin A 0.011 | [6] -0.005 | defactinib 0.135 | [7] 0.083 | encorafenib -0.033 | [8] -0.043 | alisertib 0.019 | [9] 0.022 | gefitinib -0.06
